The series can be described thus: general procedure: Fmoc solid-phase peptide synthesis; Rink resin (Novabiochem), 0.51 mmol/g; Fmoc-Rink resin 0.47 mmol/g; HBTU. The conditions noted are these: whole synthesis, hydrochloride.

Positions of bridges follow the written chain, without caps; N, C: chain ends. Non-standard residues stand in square brackets, D forms with d. *: point of attachment. Palmitoyl = CCCCCCCCCCCCCCCC(=O)*; Hyp = O=C(O)[C@@H]1C[C@@H](O)CN1; Nle = CCCC[C@H](N)C(=O)O

Regarding “Palmitoyl-GSQHS[Nle]E[Hyp][dF]RWK-NH2 (lactam 7-12)”, the isolated mass worked out at 99.4 mg. In addition, the “final HPLC purity” value (UV 214 and 254 nm, scale of the general procedure 0.25 mmol, approximately 0.40 mmol) is listed as 100%. Where the note is “scale of the general procedure 0.25 mmol, approximately 0.40 mmol”, this substance came in with an isolated yield of 14%.

The values are drawn from patent US7541430 (dated 2009).
